Test results from US8940715B2, “Lipid-regulating agent and use thereof” (Hayashibara Co., Ltd., priority 2003, dated 2015).

Experiments:
male Wister-rats = assay: Experiment 1-1 liver weight and lipids in liver; format: in vivo; conditions: 4 weeks, rat
Text: (§1) Fifty 5-weeks aged male Wister-rats, having a weight of 110 to 120 grams, commercialized by Charles River Japan, Kanagawa, Japan, were fed on a non-fiber feed having a composition shown in Table 1 for one week for habituation. After the habituation, the rats were randomly divided into five groups and each group was fed on either of feeds shown in Table 1, i.e., a non-fiber feed, a feed in which cellulose was incorporated into the non-fiber feed to give a content of 5% (hereinafter, abbreviated as “fiber feed”), a feed in which powdery anhydrous crystalline CTS (purity of CTS: 99.5%), prepared by the method of Example A-3 described later, was incorporated into the non-fiber feed to give a content of 1, 2, or 5%, on a dry solid basis, and the feeding test was carried out for four weeks. A fiber-feed and three kinds of feeds comprising CTS were prepared to give the total content of cellulose or CTS and corn starch of 44.75% to the total weight of each feed. The rats were kept under the conditions of keeping the temperature at 25° C., lighting and shading for 12 hours each/day, and allowing the rats to eat the respective feed and water freely. After the completion of the feeding test, weight of individuals in each group was measured and an average weight and an average increase of weight of each group during the test period were calculated. Also, the total amount of feed fed to individual rat in each group during the 4-weeks test period and an average amount of CTS taken per day per kg-weight-rat were calculated and the results are in Table 2.
After collecting the blood described above, each rat was killed by dislocating its cervical vertebrae and anatomized. Then, adipose tissues surrounding intestinal membrane, kidney, and testis, as well as liver and cecum, were collected. The wet-weight of those adipose tissues was measured and the results are in Table 4. In the case of liver, the wet-weight and the amount of total lipid, total cholesterol, triglyceride, and phospholipids were measured and the results are in Table 5. […]

[1] = Experiment 1-1 feeding test on rat: weight and amount of feed taken; format: in vivo; conditions: 4 weeks
Text: as §1

[2] = 5% (w/w) CTS (Fiber: 5% cellulose) in feed

OCC1OC2OCC3O[C@H](O[C@H]4C(O)C(CO)OC(OCC5O[C@H](O[C@@H](C1O)C2O)C(O)C(O)[C@@H]5O)C4O)C(O)C(O)[C@@H]3O (stereo partly drawn) [CTS, cyclo {→6)-α-D-glucopyranosyl-(1→3)-α-D-glucopyranosyl-(1→6)-α-D-glucopyranosyl-(1→3)-α-D-glucopyranosyl-(1→}]
Weight of liver (male Wister-rats; 1% (w/w) CTS in feed): 8.4 g/individual | Weight of liver (male Wister-rats; 2% (w/w) CTS in feed): 8.6 g/individual | Weight of liver (male Wister-rats; [2]): 8.1 g/individual | Total amount of feed taken ([1]; 1% (w/w) CTS in feed): 593 g/individual/28 days | Total amount of feed taken ([1]; 2% (w/w) CTS in feed): 601 g/individual/28 days | Total amount of feed taken [1, 2]: 561 g/individual/28 days
